According to US9180134B2, “Mitochondrial ribosomal proteins as aging regulators” (ECOLE POLYTECHNIQUE FEDERALE DE LAUSANNE (EPEL), priority 2011, dated 2015):
At least one structure is not confirmed: it was looked up by name or label, or the drawing left a doubt.

How the values were obtained:
[1] = test system: ATP5A / MTCO1 OXPHOS proteins; experiment: Western blotting of nDNA- and mtDNA-encoded OXPHOS proteins in worms; type: in vivo; details: C. elegans, Western blot
[2] = test system: C. elegans; experiment: Worm lifespan analysis; type: in vivo; details: antibiotic from eggs to L4 larval stage, heat-killed bacteria; 20° C
Procedure: Lifespan tests were performed as described (Mouchiroud et al., 2011, Aging Cell 10, 39). Briefly, 60-100 animals were used per conditions and scored every other day. All lifespan experiments were performed at 20° C. […] Treatments with antibiotics (carbenicillin, doxycycline, and chloramphenicol (all Sigma)) were performed with heat-killed bacteria (Wood et al., 2004, Nature 430, 686). Carbenicillin, doxycycline, and chloramphenicol were added at the indicated concentrations. Animals were exposed to antibiotics from eggs to L4 larval stage and then shifted on plates seeded with live OP50 bacteria.

[3] = test system: hepatocyte cell line; experiment: Western blotting in cultured hepatocyte cell line; type: cell-based, mouse
[4] = test system: primary murine hepatocytes; experiment: Western blotting in primary murine hepatocytes; type: cell-based, mouse; details: 30 μg/ml, 48 h
[5] = test system: mitochondrial unfolded protein response (UPR^mt); experiment: UPR^mt GFP reporter worms (hsp-6::GFP); type: in vivo, C. elegans; details: Day 1 adults
Procedure: Treatments with antibiotics (carbenicillin, doxycycline, and chloramphenicol (all Sigma)) were performed with heat-killed bacteria (Wood et al., 2004, Nature 430, 686). Carbenicillin, doxycycline, and chloramphenicol were added at the indicated concentrations. Animals were exposed to antibiotics from eggs to L4 larval stage and then shifted on plates seeded with live OP50 bacteria. GFP expression and quantification were carried out according to the protocol previously described (Durieux et al, 2011, Cell 144, 79). Briefly, GFP was monitored in Day 1 adults. Fluorimetric assays were performed using a Victor X4 multilabel plate reader (Perkin-Elmer Life Science). Eighty roller worms were picked at random (20 worms per well of a black-walled 96-well plate) and each well was read four times and averaged. Each experiment was repeated at least twice. For picture acquisition, animals were mounted on 2% agarose pads in a droplet of 10 mM tetramisole (Sigma) and examined using a Zeiss Axioplan-2 microscope (Carl Zeiss MicroImaging, Thornwood, N.Y., USA) equipped for both DIC and epifluorescence. Images were obtained using a Coolsnap ES^2 camera.

[6] = test system: Hepa1-6 mouse liver cells; experiment: Oxygen consumption in Hepa1-6 cells (Seahorse XF24); type: cell-based; details: 48 h incubation, normalized for protein content
Procedure: Hepa1-6 mouse liver cells were maintained in DMEM medium containing 4.5 g/l glucose and 10% fetal calf serum. Hepa1-6 cells were incubated for 48 h with doxycycline or chloramphenicol (both Sigma) in medium containing 1 g/l glucose, with 1% (v/v) oleate-BSA (Sigma) supplementation, and without any other antibiotics. Oxygen consumption in Hepa1-6 cells was measured using the Seahorse XF24 equipment (Watanabe et al., 2006, Nature 439, 484), and normalized for protein content. ATP content was measured using CellTiter-Glo (Promega), according to the manufacturer's protocol.

[7] = test system: UPR^ER; experiment: UPR^ER reporter worms (hsp-4::GFP); type: in vivo, C. elegans; details: data not shown
[8] = test system: C57BL/6N mice; experiment: Mouse indirect calorimetry (CLAMS); type: in vivo; details: C57BL/6 mice, 50 mpkd in food for 10 days, light cycle
Procedure: Wild type C57BL/6N mice were treated for 10 days with 50 mpkd doxycycline (Sigma) in food admix. Oxygen consumption (VO2), respiratory exchange ratios (RER), and activity were monitored by indirect calorimetry using the comprehensive laboratory animal monitoring system (CLAMS) (Columbus Instruments, Columbus, Ohio, USA).

[9] = test system: C. elegans; experiment: Worm respiration assay (Seahorse XF24); type: in vivo; details: worms treated with antibiotic
Procedure: Treatments with antibiotics (carbenicillin, doxycycline, and chloramphenicol (all Sigma)) were performed with heat-killed bacteria (Wood et al., 2004, Nature 430, 686). Carbenicillin, doxycycline, and chloramphenicol were added at the indicated concentrations. Animals were exposed to antibiotics from eggs to L4 larval stage and then shifted on plates seeded with live OP50 bacteria. Oxygen consumption was measured using the Seahorse XF24 equipment (Seahorse Bioscience Inc., North Billerica, Mass.). Typically, 200 animals per conditions were recovered from NGM plates with M9 medium, washed three times in 2 mL M9 to eliminate residual bacteria, and resuspended in 500 μL M9 medium. Worms were transferred in 24-well standard Seahorse plates (#100777-004) (50 worms per well) and oxygen consumption was measured 6 times. Respiration rates were normalized to the number of worms in each individual well.

Compound: C[C@H]1c2cccc(O)c2C(=O)C2=C(O)[C@]3(O)C(=O)C(C(N)=O)=C(O)[C@@H](N(C)C)[C@@H]3[C@@H](O)[C@@H]21 [doxycycline]
- ratio of nDNA-(ATP5A) over mtDNA-encoded (MTCO1) OXPHOS proteins [1]: increased the ratio
- lifespan of C. elegans [2]: extended lifespan
- ratio of nDNA-(UQCRC2) versus mtDNA-(MTCO1) encoded proteins ([3]; cultured hepatocyte cell line): altered the ratio
- HSP60 protein expression ([3]; hepatocyte cell lines): increased HSP60 protein expression
- HSP60 protein expression [4]: increased HSP60 protein expression
- ratio of nDNA-(SDHA) versus mtDNA-(MTCO1) encoded proteins [4]: altered the ratio
- UPR^mt induction in C. elegans [5]: dose-dependently induced
- respiration (oxygen consumption) in Hepa1-6 cells [6]: decreased respiration
- activation of UPR^ER in C. elegans [7]: without activation of UPR^ER
- oxygen consumption in mice [8]: significantly reduced
- oxygen consumption (respiration) of C. elegans [9]: reduction in oxygen consumption
